Measurements: the supplement of paper PMC12578635
± gives the standard deviation of the averaged measurements. The list shows a part of the results. Repeats are few or missing, and single values can be far off.

Tested on: RAW 264.7 macrophages infected with S. aureus JE2-lux
Assay: host macrophage viability (CellTiter-Fluor) relative to DMSO vehicle; higher = more viable host cells
Conditions: 10 µM; treatment time 4 h; gentamicin 50 µg/ml

| Structure (SMILES) | host macrophage viability |
| --- | --- |
| O=C1CC(c2nc3ccccc3[nH]2)CN1c1cccc(C(F)(F)F)c1 (stereo unspecified) | 124 ± 17% |
| Cc1nc(OCC(=O)NC2CCS(=O)(=O)C2)c2c(C)c(C)oc2n1 (stereo unspecified) | 129% |
| Cc1oc(-c2ccno2)cc1S(=O)(=O)N1CCN(c2ccc(F)cc2)CC1 | 109% |
| CC1CN(C(=O)Cn2cnc3c(cnn3-c3cccc(Cl)c3)c2=O)CC(C)O1 (stereo unspecified) | 120% |
| CCOC(=O)C1=C(C)N=c2s/c(=C3\C(=O)Nc4ccccc43)c(=O)n2C1c1cccs1 (stereo unspecified) | 91.1% |
| COc1ccc(-c2nn(Cc3ccc(C)cc3)c(=O)c3noc(C)c23)cc1 | 98.5% |
| Cc1nn(Cc2noc(-c3cc4ccccc4[nH]3)n2)c(C)c1S(=O)(=O)N1CCCC1 | 86.7% |
| Cc1cccn2c(=O)nc(SCC(=O)N(C(C)C)C(C)C)nc12 | 120% |
| O=C(COc1ccccc1)Nc1ccc(-c2cn3ccccc3n2)cc1 | 133% |
| COc1ccc(CN2CC3=C(C2=O)C(c2ccc(Cl)cc2)NC(=O)N3)cc1 (stereo unspecified) | 101% |
| Cc1cc2nnc(SCC(=O)Nc3ccc4c(c3)OCO4)n2c2ccccc12 | 119% |
| CCOc1ccc(C)cc1S(=O)(=O)Nc1ccc2c(c1)C(=O)Nc1ccccc1O2 | 114% |
| O=C(OC(C(=O)NCc1ccc(F)cc1)c1ccc2ncccc2c1)c1cccs1 (stereo unspecified) | 97.6% |
| N#C/C(=C/c1ccc(Cl)cc1)C(=O)Nc1sc2c(c1C(N)=O)CCCC2 | 116.3 ± 0.33% |
| O=c1c2cnn(CCO)c2ncn1Cc1ccccc1Cl | 117% |
| CCOc1ccc(Cn2c(=O)c3sccc3n3c(=S)[nH]nc23)cc1OCC | 103% |
| COC(=O)c1ccc(CSc2nc(N)c3c4c(sc3n2)CCC4)cc1 | 113% |
| CCCN1C(=O)/C(=C2\SC(=N)NC2=O)c2cc(Br)ccc21 | 114% |
| Cc1cc(C)c2cc(CNCc3ccccc3C)c3nn(C)c(=O)n3c2c1 | 130% |
| O=C(NC1CCCC1)C(c1ccc2ncccc2c1)N(Cc1cccs1)C(=O)c1ccc(O)cc1 (stereo unspecified) | 110% |
| COc1cccc(CNC(=O)CSc2nnc3ccc(C(=O)NCc4ccccc4)cn23)c1 | 122% |
| O=C(COc1ccc(Cl)cc1Cl)Nc1nnc2n1CCS2 | 116% |

| Structure (SMILES) | host macrophage viability |
| --- | --- |
| COc1ccc(-c2nnc(Nc3ccc4c(c3)OCO4)[nH]c2=O)cc1 | 113% |
| Cc1ccc(S(=O)(=O)n2nc(-c3ccc(C)c(C)c3)nc2N)cc1 | 93.2% |
| CCc1ccc(Nc2nc(C)c3ncn(-c4ccc(CC)cc4)c3n2)cc1 | 102% |
| COCCn1c(SCC(=O)Nc2nccs2)nnc1-c1c[nH]c2ccccc12 | 105 ± 9.2% |
| O=C(c1ccc(-c2nc(-c3ccccc3)no2)cc1)N1CCn2c1nc1ccccc12 | 89.8% |
| CC(C(=O)N1CCOCC1)C1CCN(C(=O)c2cc3ccccc3[nH]2)CC1 (stereo unspecified) | 97.3% |
| N#Cc1cc2cc3c(cc2nc1SCC(=O)NCC1CCCO1)OCCO3 (stereo unspecified) | 145% |
| CCc1c(C)nc(SCC(=O)Nc2cc(C)on2)[nH]c1=O | 96.7% |
| CCOC(=O)c1sc(NC(=O)c2cccc(C)c2)cc1C | 123 ± 9.6% |
| Cn1c(SCC(=O)Nc2nc3ccccc3s2)nnc1-c1ccccc1 | 103% |
| Cc1ccc(NC(=O)CCN2C(=O)/C(=C\c3ccco3)SC2=S)c(C)c1 | 111% |
| O=C(CSc1nc(=O)n(CC2CCCO2)c2c1CCCC2)Nc1ccc([N+](=O)[O-])cc1 (stereo unspecified) | 104% |
| Brc1ccc(-c2csc3ncnc(N4CCCCC4)c23)cc1 | 67.8% |
| CCOC(=O)c1ccccc1Nc1nc(C)nc2c1CCC2 | 97.1% |
| O=c1cc(CO)oc(C(Nc2ccccn2)c2cccc(F)c2)c1O (stereo unspecified) | 102% |
| COc1cccc2sc(NC(=O)c3ccc(N4C(=O)CCC4=O)cc3)nc12 | 117% |
| NC(=O)c1c(NC(=O)C2=COCCO2)sc2c1CCCCC2 | 104% |
| COc1cc2cc(C#N)c(SCC(=O)NCc3ccco3)nc2cc1OC | 120% |
| Cn1c(=O)c2c(nc(SCCN3CCCCC3)n2Cc2ccc(Cl)cc2)n(C)c1=O | 96.2% |
| CS(=O)(=O)c1cc([N+](=O)[O-])c(Sc2nc3ccccc3o2)c([N+](=O)[O-])c1 | 78.5% |
| O=C(O)c1nc(N2CCCCC2)c2c(-c3ccccc3F)noc2n1 | 75.3% |
| COc1cc(C(=O)Nc2nc3c(ccc4ccccc43)s2)cc(OC)c1OC | 134% |

A second format for some results above:
Structure (SMILES) | host macrophage viability
Cn1c(=O)c2c(nc(SCCN3CCCCC3)n2Cc2ccc(Cl)cc2)n(C)c1=O | 96.2%
CS(=O)(=O)c1cc([N+](=O)[O-])c(Sc2nc3ccccc3o2)c([N+](=O)[O-])c1 | 78.5%
O=C(O)c1nc(N2CCCCC2)c2c(-c3ccccc3F)noc2n1 | 75.3%
COc1cc(C(=O)Nc2nc3c(ccc4ccccc43)s2)cc(OC)c1OC | 134%

3 structures out of the list, arranged by SMILES length, ascending:

| Structure (SMILES) | host macrophage viability |
| --- | --- |
| Brc1ccc(-c2csc3ncnc(N4CCCCC4)c23)cc1 | 67.8% |
| CCc1c(C)nc(SCC(=O)Nc2cc(C)on2)[nH]c1=O | 96.7% |
| CC(C(=O)N1CCOCC1)C1CCN(C(=O)c2cc3ccccc3[nH]2)CC1 (stereo unspecified) | 97.3% |

The list continues:

| Structure (SMILES) | host macrophage viability |
| --- | --- |
| O=C(Nc1nc2c(s1)CCC2)c1cccc(NS(=O)(=O)c2ccc(F)cc2)c1 | 110% |
| CCOC(=O)CC(NC(=O)NCc1ccnc(N2CCSCC2)c1)c1ccccc1 (stereo unspecified) | 93.7% |
| COc1cc(Cl)c(NS(=O)(=O)c2cc(-c3cc(C)no3)cs2)c(OC)c1 | 110% |
| O=C1COc2ccc(S(=O)(=O)N3CCC(NC(=O)C4CCCC4)CC3)cc2N1 | 109% |
| Cc1nnc(NC(=O)c2ccccc2C(F)(F)F)s1 | 119% |
| CCc1ccc(CNC(=O)c2cc3c(=O)n(Cc4cccnc4)ccc3nc2C)cc1 | 113% |
| CN1C(=O)N(CC(=O)NCc2ccccc2F)c2cccnc2N1C | 129% |
| CC(C)CC(=O)N1CCC(c2nnc(C(=O)Nc3cccc(Cl)c3)s2)CC1 | 117% |
| C#CCn1/c(=N/C(=O)COc2ccc(Cl)cc2Cl)sc2cc(S(N)(=O)=O)ccc21 | 108% |
| Cc1ccccc1Cn1cc(S(=O)(=O)c2ccc(F)cc2)c(=O)c2cc3c(cc21)OCO3 | 138% |
| Cc1ccc(C)c(S(=O)(=O)N2CCCC2CNC(=O)C(=O)NCc2cccnc2)c1 (stereo unspecified) | 113% |
| O=C(c1cc(-c2cccs2)on1)N(Cc1cccc(Cl)c1)C1CCS(=O)(=O)C1 (stereo unspecified) | 109% |
| CCOC(=O)c1ccc(Oc2ncnc3sc4c(c23)CCCCC4)cc1 | 125% |
| Cc1ccc2ncc(NC(=O)N3CCn4cnnc4C3)c(O)c2c1 | 128% |
| COC(=O)c1c(NC(=O)CC2Sc3ccccc3NC2=O)sc(C)c1C (stereo unspecified) | 120% |
| O=C(Nc1cccc(-c2ccc3nncn3n2)c1)c1ccc(Cl)nc1 | 120% |
| CC(CCc1ccccc1)NC(=O)C1CCCN(c2nccnc2Oc2ccccc2)C1 (stereo unspecified) | 100% |
| CCOc1ccc2cc(C#N)c(SCC(=O)NCCc3ccccc3)nc2c1 | 111% |
| COc1ccc(NC(=O)N2CCC(c3nc4ccccc4o3)CC2)cc1 | 99.7% |
| CCN(CCCNC(=O)c1c(-c2ccccc2)nnc2ccc(C)cc12)c1ccccc1 | 108% |
| COCCOC(=O)Cn1nc2c3c(C)c(C)sc3nc(C)n2c1=O | 113% |
| Cc1nc(NC(=O)CSc2nc3ccccc3n2CC(=O)NC(C)(C)C)sc1C | 98.5% |
